In publication PMC8363623:
Results are given in words; binding and its absence hold for the method and conditions named. A result given as binding can be weak or reduced; the word gives no strength. Where a sequence is shown, tags or fusion partners need not be part of it.

Amino acid sequences for entries named in this document (tags omitted). A change or cut given only in a name is not applied to a line headed by its entry.
UniProt Q12066: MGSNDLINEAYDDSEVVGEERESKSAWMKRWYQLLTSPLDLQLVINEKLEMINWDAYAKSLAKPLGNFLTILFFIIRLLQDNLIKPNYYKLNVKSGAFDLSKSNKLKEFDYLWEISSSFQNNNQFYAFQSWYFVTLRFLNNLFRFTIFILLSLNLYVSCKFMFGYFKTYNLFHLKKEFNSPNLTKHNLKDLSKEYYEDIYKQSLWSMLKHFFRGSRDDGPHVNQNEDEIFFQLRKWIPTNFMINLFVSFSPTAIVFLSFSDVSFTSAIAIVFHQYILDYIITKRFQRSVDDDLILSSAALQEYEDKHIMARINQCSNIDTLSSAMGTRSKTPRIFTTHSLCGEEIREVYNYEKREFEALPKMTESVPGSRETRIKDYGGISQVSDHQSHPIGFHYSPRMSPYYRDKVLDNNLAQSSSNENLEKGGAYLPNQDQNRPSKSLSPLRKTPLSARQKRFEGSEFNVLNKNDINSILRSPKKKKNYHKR

Experiments:
[1] = biological target: T1, Ufd1 (two-hybrid fusion) (S. cerevisiae) (UniProt P53044); assay: two-hybrid; Gal4 AD (pGADT7) and BD (pGBKT7) fusions in PJ69a, or Y187 mated with Y2HGold; spotting on -LW and on -LWH, -LWH + 1 mM 3-aminotriazol, -LWHA, 3 days unless indicated
T1 sequence: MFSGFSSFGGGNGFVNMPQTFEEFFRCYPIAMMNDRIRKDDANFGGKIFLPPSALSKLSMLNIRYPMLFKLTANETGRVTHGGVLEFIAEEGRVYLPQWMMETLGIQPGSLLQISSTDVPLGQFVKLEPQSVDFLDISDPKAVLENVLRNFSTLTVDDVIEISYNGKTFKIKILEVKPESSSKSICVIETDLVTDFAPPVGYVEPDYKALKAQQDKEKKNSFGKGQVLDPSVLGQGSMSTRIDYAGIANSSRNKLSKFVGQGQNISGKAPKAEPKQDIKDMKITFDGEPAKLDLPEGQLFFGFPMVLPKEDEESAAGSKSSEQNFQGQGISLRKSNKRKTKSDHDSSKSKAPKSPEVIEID

[2] = biological target: T2, Csm1 (two-hybrid fusion) (S. cerevisiae) (UniProt P25651); assay: as above
T2 sequence: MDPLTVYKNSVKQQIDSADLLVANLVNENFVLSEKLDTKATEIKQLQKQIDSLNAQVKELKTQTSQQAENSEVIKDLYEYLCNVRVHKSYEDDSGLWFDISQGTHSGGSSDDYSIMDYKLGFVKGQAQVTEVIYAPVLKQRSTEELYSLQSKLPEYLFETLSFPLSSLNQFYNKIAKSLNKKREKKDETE

Substance: Nur1 C (C-terminal Nur1 region, two-hybrid fusion) (from UniProt Q12066) (domain or fragment)
- binding [1]: binds
- binding [2]: binds
